Source: patent US20090131308A1 (AGOS BIOTECH LTD., priority 2003, published 2009)

Assay: Fmoc solid-phase peptide synthesis; Tentagel-Lys(Boc)-Fmoc resin; N-methylpyrrolidone/hydroxybenzotriazole activated ester
Settings: whole synthesis

In the case of “NSDSECPLSHDGYCLHDGVCMYIEALDKYACK-OH (C-terminal free acid)”, the difficulty met (several disulfide bridges, sequence written open) is reported as “high aggregation potential of the peptide sequence which led to incomplete couplings and sequence termination”.

With “GHARKCNETAKSYCVNGGVCYYIEGINQLSCK-OH (C-terminal free acid)” the difficulty met was “Some minor deletion products were detected for hNRG2 (1-32)”.
